T1: human VISTA expressed on the cell surface (HEK293 cells transfected with human VISTA cDNA; native on human immune cells) (human) (UniProt Q9H7M9)
T1 sequence (looked up): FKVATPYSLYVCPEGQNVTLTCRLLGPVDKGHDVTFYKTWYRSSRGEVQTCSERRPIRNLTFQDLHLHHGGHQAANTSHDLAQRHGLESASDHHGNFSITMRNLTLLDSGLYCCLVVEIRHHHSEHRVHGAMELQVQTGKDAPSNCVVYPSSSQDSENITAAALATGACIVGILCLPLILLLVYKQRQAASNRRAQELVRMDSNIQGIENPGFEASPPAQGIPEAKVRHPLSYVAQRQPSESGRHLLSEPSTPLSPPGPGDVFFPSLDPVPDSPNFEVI

T2: VISTA (antigen of the hybridoma screening ELISA) (UniProt Q9H7M9)
T2 sequence (looked up): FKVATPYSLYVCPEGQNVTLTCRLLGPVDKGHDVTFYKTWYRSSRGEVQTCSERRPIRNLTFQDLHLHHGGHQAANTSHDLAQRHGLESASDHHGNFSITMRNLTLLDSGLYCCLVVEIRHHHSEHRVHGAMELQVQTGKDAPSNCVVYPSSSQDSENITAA

T3: soluble VISTA (UniProt Q9H7M9)
T3 sequence (looked up): T2 sequence (looked up)

T4: VISTA-his protein (UniProt Q9H7M9)
T4 sequence (looked up): T2 sequence (looked up)

B1: humanized anti-VISTA antibody 29G7-HZD2 (antibody, human IgG1, kappa, V domains shown)
VH: EVQLVESGGGLVQPGGSLRLSCAASGFSLSSYAMGWVRQAPGKGLEWVGIIIVSGNIYYASWAKGRFTISRDNSKNTLYLQMNSLRAEDTAVYYCARGDGYTYGLWGQGTLVTVSS
VL: DIQMTQSPSTLSASVGDRVTITCQASQSVYSRYLAWYQQKPGKAPKLLIYSASTLASGVPSRFSGSGSGTEFTLTISSLQPDDFATYYCQGTFYIPDYIDGFGGGTKVEIKR
notes: kappa light chain
B2: humanized anti-VISTA antibody 29G7-HZD4 (antibody, human IgG1, kappa, V domains shown)
VH: B1 VH
VL: EIVMTQSPATLSLSPGERATLSCQASQSVYSRYLAWYQQKPGQAPRLLIYSASTLASGIPARFSGSGSGTDFTLTISSLQPEDFAVYYCQGTFYIPDYIDGFGGGTKVEIKR
notes: kappa light chain
B3: humanized anti-VISTA antibody 14F1-HZD2 (antibody, human IgG1, kappa, V domains shown)
VH: EVQLLESGGGLVQPGGSLRLSCAASGFSFSSSYYMCWVRQAPGKGLEWVACFYAGFSGSTYYASWAKGRFTISRDNSKNTLYLQMNSLRAEDTAVYYCAKGASTYGYTGYDYAGDYFILWQPGTLVTVSS
VL: DIQMTQSPSSVSASVGDRVTITCQASQNIYSNLAWYQQKPGKAPKLLIYAASNLASGVPSRFSGSGSGTDFTLTISSLQPEDFATYYCQSAYYSSSADSYNAFGGGTKVEIKR
notes: kappa light chain
B4: rabbit anti-VISTA antibody clone 5B6 (antibody, V domains shown)
VH: QELVESGGGLVQAGESLKLSCKASGIDFSSYGISWVRQAPGKGLEWIAYIYPGNDITDYAHSVKGRFTISSDNAQNTVFLQMTSLTASDTATYFCARDAGYAGYGYPTGTYYFTLWGPGTLVTVSS
VL: ALVMTQTPSSVSAAVGGTVTINCQASQNIYNNLAWYQQKPGQRPKLLTYGASNLESGVPSRFKGSGSGTEYTLTISDLECDDAATYYCQSAYYSSSPDGAAFGGGTEVVVK
B5: rabbit anti-VISTA antibody clone 6B5 (antibody, V domains shown)
VH: B4 VH with E45G, H61N, Y104D
VL: B4 VL with A14P, N28S, T48I, K63E
B6: rabbit anti-VISTA antibody clone 4A2 (antibody, V domains shown)
VH: QELVESGGGLVQPGESLKLSCKASGFDFSSYGVSWVRQAPGKGLEWVGYIDPVLGSAAHASWVNGRFTISSHNAQNTLYLQLNSLTAADTATYFCARAGYAGYGYGTGFNLWGPGTLVTVSS
VL: QVLTQTASPVSAAVGGTVTINCQASQNIYSNLAWYQQKPGQRPKLLIYGASNLESGVPSRFRGSGSGTDYTLTISDLECDDAATYYCQSAYYSTSADNPFGGGTEVVVK
B7: rabbit anti-VISTA antibody clone 15H1 (VH) / 15L1 (VL) (antibody, V domains shown)
VH: QSLEESGGRLVTPGTPLTLTCTVSGIDLSDYAMGWVRQAPGKGLEYIAVISPIAYTYYAPWARGRFTISRASTTVDLKVTSPTTEDTATYFCARWAGTGWGYFNLWGPGTLVTVSS
VL: AFELTQTPSSVSEPVGGTVTIKCQASESVSNYLAWYQQKPGQPPKLLIYGASTLESGVPSRFSGSGSGTEFTLTISDLECADAATYYCQEYDPSIDSGSVFGGGTELVVK
B8: humanized anti-VISTA antibody 14D8-HZD2 (antibody, human IgG1, kappa, V domains shown)
VH: EVQLVESGGGLVQPGGSLRLSCAASGFDLSSAYYMCWVRQAPGKGLEWVGCIATGSGSTYYASWAKGRFTISRDNSKNTLYLQMNSLRAEDTAVYYCARAPYYSYDGYDYALNLWGQGTLVTVSS
VL: DIQMTQSPSSVSASVGDRVTITCQASEDIVTYLAWYQQKPGKAPKLLIYAASTLASGVPSRFSGSGSGTDFTLTISSLQPEDFATYYCQQTYNYADTDNAFGGGTKVEIKR
notes: kappa light chain
B9: humanized anti-VISTA antibody 3A5-HZD (antibody, human IgG1, kappa, V domains shown)
VH: EVQLVESGGGLVQPGGSLRLSCAASGFSLSSENWICWVRQAPGKGLEWVGCICGANGGSAYHANWVNGRFTISRDNSKNTLYLQMNSLRAEDTAVYYCARAAGVSNAYYFDLWGQGTLVTVSS
VL: DIQMTQSPSSVSASVGDRVTITCQASQYIYINLAWYQQKPGKAPKLLIYDASDLASGVPSRFSGSGSGTDFTLTISSLQPEDFATYYCQCTYGGSTYGNAFGGGTKVEIKR
notes: kappa light chain
B10: humanized anti-VISTA antibody 41A11-HZD2 (antibody, human IgG1, kappa, V domains shown)
VH: B3 VH with A50G, S59G, S103N, I118T, Q121G, P122Q
VL: DIQMTQSPSTLSASVGDRVTITCQASQNIGSNLAWYQQKPGKAPKLLIYAASNLESGVPSRFSGSGSGTEFTLTISSLQPDDFATYYCQSAYYSSVDSYNTFGGGTKVEIKR
notes: kappa light chain
B11: humanized anti-VISTA antibody 2D12-HZD3 (antibody, human IgG1, kappa, V domains shown)
VH: EVQLVESGGGLVQPGGSLRLSCAASGIDLSSYAMGWVRQAPGKGLEWVGIISSSGSAFYASWAKGRFTISRDNSKNTLYLQMNSLRAEDTAVYYCARHYAGYTTPYYFNFWGQGTLVTVSS
VL: AIQMTQSPSSLSASVGDRVTITCQASENIYSNLAWYQQKPGKAPKVLIYAASDLASGVPSRFSGSGSGTDFTLTISSLQPEDFATYYCQQGFSSSNVDNAFGGGTKVEIKR
notes: kappa light chain
B12: c14F1 (antibody, V domains shown)
VH: QSLEESGGDLVKPGASLKLTCTASGFSFSSSYYMCWVRQAPGKGLEWVACFYAGFSGSTYYASWAKGRFTISKTSSTTVTLQMTSLTAADTATYFCAKGASTYGYTGYDYAGDYFILWGPGTLVTVSS
VL: ALVMTQTPSSVSAAVGGTVTINCQASQNIYSNLAWYQQKPGQRPKLLIYAASNLASGVSSRFKGSGSGTEYTLTISDLECDDAATYYCQSAYYSSSADSYNAFGGGTEVVVK
B13: c14D8 (antibody, V domains shown)
VH: QEQLEESGGGLVKPEGSLTLTCKASGFDLSSAYYMCWVRQAPGKGLEWIGCIATGSGSTYYASWAKGRFTISKTSSTTVTLQATSLTAADTATLFCARAPYYSYDGYDYALNLWGPGTLVTVSS
VL: IKMTQTPSSVSAVVGGTVTINCQASEDIVTYLAWYQQKPGHSPNLLIYAASTLASGVPSRFKGSGSGTQFTLTISDVQCDDAATYYCQQTYNYADTDNAFGGGTEVVVK
B14: c3A5 (antibody, V domains shown)
VH: LEQSGGGAEGGLVKPGGSLDLCCKASGFSLSSENWICWVRQAPGKGLEWIGCICGANGGSAYHANWVNGRFTLSRDIDQSTDCLHLNSLTASDTAMYYCARAAGVSNAYYFDLWGPGTLVTVSS
VL: DVVMTQTPSSVSAAVGGTVTIKCQASQYIYINLAWYQQKPGQRPKLLIYDASDLASGVPSRFKGSRSGTEFTLTISDLECADAATYYCQCTYGGSTYGNAFGGGTEVVVK
B15: 29G7 human IgG1 chimeric anti-VISTA antibody (antibody, V domains shown)
VH: QSLEESGGRLVTPGTPLTLTCTASGFSLSSYAMGWVRQAPGKGLEWIGIIIVSGNIYYASWAKGQFTISKTSTTVDLKITSPTTEDTATYFCARGDGYTYGLWGQGTLVTVSS
VL: DIVMTQTPASVEAAVGGTVTIKCQASQSVYSRYLAWFQQKPGQPPKLLIYSASTLASGVSSRFKGSGSGTEYTLTISGVQCDDAATYYCQGTFYIPDYIDGFGGGTEVVVK
B16: 2D12 human IgG1 chimeric anti-VISTA antibody (antibody, V domains shown)
VH: LSLEESGGRLVTPGTPLTLTCTVSGIDLSSYAMGWVRQAPGKGLEYIGIISSSGSAFYASWAKGRFTISKTSSTTVDLKMTSPTTEDTATYFCARHYAGYTTPYYFNFWGPGTLVTVSS
VL: AYDMTQTPASVEVTVGGTVTIKCQASENIYSNLAWYQQKPGQPPKVLIYAASDLASGVPSRFKGSGSGTEYTLTISGVECADAATYYCQQGFSSSNVDNAFGGGTEVVVK

Substitutions are numbered along the chain they refer to. No constants are given. Whether binding was seen depends on the method and setting. Some binding calls cover weakened binding; strength is not graded here. For part of these data: Tags and fused reporters may be left off the sequences shown.

The target in the first test is T1, human VISTA expressed on the cell surface (HEK293 cells transfected with human VISTA cDNA; native on human immune cells) (human). The test can be described thus: flow cytometry on HEK293 cells transfected with human VISTA. For orientation: A flow cytometer gives signals particle by particle.
On to B1, for which the binding result is on record as “binds”.
For B2, the binding result is “binds”.
Take B3: the binding entry is recorded as “binds”.

The target in the next test is T2, VISTA (antigen of the hybridoma screening ELISA). The test can be described thus: ELISA binding assay, hybridoma screen. Background: An ELISA detects its analyte on a solid surface through an enzyme-linked reagent.
B4: the binding entry is recorded as “binds”.
Take B5: the binding entry is given as “binds”.
Regarding B6, the binding entry is on record as “binds”.
Take B7: the binding entry is “binds”.

The next test addresses T3, soluble VISTA. The test is described as follows: ELISA, binding to soluble VISTA.
For B8, the binding entry is “binds”.
Turning to B9, the binding entry is reported as “binds”.
Same read-out and setting: the result for B1 reads “binds”.
Regarding B2, the binding result was “binds”.
On to B3, for which the binding entry was “binds”.
As for B10, the binding result was “binds”.
The same measure, in the same setting: the result for B11 reads “binds”.

A further test addresses T4, VISTA-his protein. The test is described as follows: competition ELISA on coated VISTA-his; pre-incubation with the chimeric antibody, then biotin-labeled VSTB112, detected with streptavidin-HRP.
On to B12, for which the binding entry is listed as “binds”.
On to B13, for which the binding result is “binds”.
Still for that read-out and setting: the result for B14 reads “binds”; that for B15, “binds”.

Another test addresses T3, soluble VISTA. The test can be described thus: ELISA on soluble VISTA.
Consider B8, for which the binding entry was “binds”.
Turning to B9, the binding result was “binds”.
For B1, the binding entry was “binds”.
On the same count and under the same terms, the result for B2 reads “binds”; that for B3, “binds”.
For B10, the binding entry is on record as “binds”.
Take B11: the binding entry is listed as “binds”.

For another test, the target named is T4, VISTA-his protein. The test is described as follows: competition ELISA on coated VISTA-his with biotin-labeled VSTB112.
B16: the binding entry is on record as “binds”.
Consider B15, for which the binding result is recorded as “binds”.

(Values after patent US20210139589A1 (APEXIGEN, published 2021).)
